Assay results: patent US9402831B2, “Combination therapy of HSP90 inhibitors with BRAF inhibitors” (Synta Pharmaceuticals Corp., priority 2011, dated 2016)
For some of these results: At least one compound was matched to its structure with a doubt left. Some entries share one result that the patent states for a list of compounds.

Key:
RPMI-7951 melanoma cells [1] = assay: Cell viability assay, RPMI-7951 melanoma cells; assay type: cell-based, human; details: RPMI-7951 cells, concentrations of 1 μM
Method: (§1) Human melanoma cell lines carrying the V600E BRAF mutation (A375, SK-MEL-28, RPMI-7951) and human prostate cancer cells (LNCaP, 22Rv1) were purchased from the American Type Culture Collection (Manassas, Va.) and grown following ATCC recommendations, in the presence of fetal bovine serum (10%), 2 mM L-glutamine and antibiotics (100 IU/ml penicillin and 100 μg/ml streptomycin) purchased from Sigma Aldrich. Cells were maintained at 37° C., 5% CO2 atmosphere.
Cell viability was measured using the Cell Titer-Glo assay (Promega). In brief, cells were plated in 96-well plates in triplicate at optimal seeding density (determined empirically for each cell line) and incubated at 37° C., 5% CO2 atmosphere for 24 hr prior to the addition of drug or vehicle (0.3% DMSO) to the culture medium. At the end of the assay, Cell Titer-Glow was added to the wells per manufactures recommendation, shaken for two minutes and incubated for 10 minutes at room temperature. Luminescence (0.1 sec) was measured with a Victor II microplate reader (Perkin Elmer) and the resulting data were used to calculate cell viability, normalized to vehicle control.

RPMI-7951 melanoma cells [2] = assay: Western blotting, RPMI-7951 cells; assay type: cell-based, human; details: RPMI-7951 (overexpress COT), 24 hr, western blot, FIG. 5
Method: as §1
Cells, treated with compound for 24 hr, were lysed in RIPA buffer (CST, Danvers, Mass., USA) on ice and clarified by centrifugation. Equal amounts of proteins were resolved by SDS-PAGE and immunoblotted with indicated antibodies. The antigen-antibody complex was visualized and quantitated using an Odyssey system (LI-COR, Lincoln, Nebr., USA).

[3] = system: metastatic melanoma positive for the BRAF V600E mutation; details: phase I trials, BRAF V600E positive tumors; cited from earlier work

Row | Structure (SMILES) | cells killed (RPMI-7951 melanoma cells [1]) | suppression of ERK phosphorylation (RPMI-7951 melanoma cells [2]) | response rate [3]
1 | Cn1cnc2c(F)c(Nc3ccc(Br)cc3Cl)c(C(=O)NOCCO)cc21 [AZD6244, reference compound] | ≤ 40% | – | –
2 | CCCS(=O)(=O)Nc1ccc(F)c(C(=O)c2c[nH]c3ncc(-c4ccc(Cl)cc4)cc23)c1F [PLX-4032, vemurafenib] | ≤ 40% | neither the MEK inhibitor AZD6244 nor the BRAF inhibitor PLX-4032 were capable of suppressing ERK phosphorylation | 81%
